Experimental data: paper PMC12431657, “Discovery and mechanistic insights of dibenzoylmethane as a broad spectrum inhibitor of coronavirus” (PLOS Pathogens, 2025)
Counter-ions that a name gives are not always drawn. Like-named read-outs stand apart in the source and are kept apart here. The whole screen tested about 3,300 compounds, of which about 95 (3%) showed an effect of 50% or more. This is one part of the list. Peptide text beside a SMILES is read from it.

System: HCoV-229E
Set-up: species or system Huh-7; HTS, protection from HCoV-229E induced cell death, luminescent cell viability (CellCounting-Lite 2.0), inhibition rate
Settings: 24 h post infection, 1 h compound pre-incubation, 10 µM, inhibitor

| Compound | 229E Inhibition rate (229E Inhibition rate, 24 h) | 229E Inhibition rate |
| --- | --- | --- |
| C=C[C@H]1CN2CC[C@H]1C[C@H]2[C@H](O)c1ccnc2ccc(OC)cc12 [Quinine] | 49.1% | – |
| C[C@]12CC[C@H](O)C[C@H]1CC[C@@H]1[C@@H]2C[C@@H](O)[C@]2(C)[C@@H](C3=CC(=O)OC3)CC[C@]12O [Digoxigenin] | – | 35% |
| COc1ccc(-c2coc3cc(O)ccc3c2=O)cc1 [Formononetin] | – | 21.3% |
| CC(C)N(CCCCOCC(=O)O)c1cnc(-c2ccccc2)c(-c2ccccc2)n1 [MRE-269] | – | 12.2% |
| CC1(C)CC[C@]2(C(=O)O)CC[C@]3(C)C(=CC[C@@H]4[C@@]5(C)CCC(=O)C(C)(C)[C@@H]5CC[C@]43C)[C@@H]2C1 [Oleanonic acid] | – | 5.9% |
| OCC1=C[C@H](N[C@H]2C[C@H](CO)[C@@H](O[C@@H]3O[C@H](CO)[C@@H](O)[C@H](O)[C@H]3O)[C@H](O)[C@H]2O)[C@H](O)[C@@H](O)[C@@H]1O [Validamycin A] | – | 13.2% |
| NC(=O)c1ccccc1O [Salicylamide] | – | 27.2% |
| Cc1cccs1 [2-Methylthiophene] | – | 21.5% |
| O=C(O)C(O)Cc1cc2ccccc2[nH]1 (centres unmarked) [Indolelactic acid] | – | 16.7% |
| C/C=C1/CN2[C@H]3Cc4c([nH]c5ccccc45)[C@]2(O)C[C@@H]1[C@@]3(CO)C(=O)OC [16-Epivoacarpine] | – | 7.1% |
| CC(C)=CCc1cc2ccc(=O)oc2cc1O [Demethylsuberosin] | – | 7.5% |
| COc1cc2c(cc1OC)-c1c(C)c3ccc(OC)c(OC)c3c[n+]1CC2 [Dehydrocorydaline (nitrate)] | 10.5% | – |
| COc1cc2oc3cc(O)c(OC)c(CC=C(C)C)c3c(=O)c2c(O)c1CC=C(C)C [beta-Mangostin] | – | 5% |
| COc1cc(O)c2c(=O)cc(-c3ccc(OC)c(-c4c(O)cc(O)c5c(=O)cc(-c6ccc(O)cc6)oc45)c3)oc2c1 [Ginkgetin] | – | 64.4% |
| N[C@H](CC(=O)O)C(=O)O [(-)-Aspartic acid] | – | 9.6% |
| CC(=O)[C@]1(O)Cc2c(O)c3c(c(O)c2[C@@H](O[C@H]2C[C@H](N)[C@H](O)[C@H](C)O2)C1)C(=O)c1c(O)cccc1C3=O [Carubicin (hydrochloride)] | – | 4.3% |
| CC/C=C\C/C=C\C/C=C\C/C=C\C/C=C\CCCC(=O)O [Eicosapentaenoic Acid] | – | 14.9% |
| C[C@]12CCC(=O)C=C1CC[C@@H]1[C@@H]2C(=O)C[C@@]2(C)[C@H]1CC[C@]2(O)C(=O)CO [Cortisone] | – | 18.3% |
| OC1OC[C@@H](O)[C@@H](O)[C@@H]1O (stereo partly drawn) [D-Arabinose] | 21.5% | – |
| O=C(O)CCCCCCC[C@@H](O)[C@@H](O)CCCCCCO [Aleuritic acid] | – | 8.8% |
| C[C@H](CCC(=O)O)[C@H]1CC[C@H]2[C@@H]3CC[C@@H]4C[C@H](O)CC[C@]4(C)[C@H]3C[C@H](O)[C@]12C [Deoxycholic acid sodium salt] | 36.6% | – |

Three entries out of the list, ordered by formula weight, smallest number first.

| Compound | 229E Inhibition rate (229E Inhibition rate, 24 h) | 229E Inhibition rate |
| --- | --- | --- |
| Cc1cccs1 [2-Methylthiophene] | – | 21.5% |
| N[C@H](CC(=O)O)C(=O)O [(-)-Aspartic acid] | – | 9.6% |
| C[C@]12CCC(=O)C=C1CC[C@@H]1[C@@H]2C(=O)C[C@@]2(C)[C@H]1CC[C@]2(O)C(=O)CO [Cortisone] | – | 18.3% |

Further entries follow.

| Compound | 229E Inhibition rate (229E Inhibition rate, 24 h) | 229E Inhibition rate |
| --- | --- | --- |
| CN(C)[C@@H]1C(O)=C(C(N)=O)C(=O)[C@@]2(O)C(O)=C3C(=O)c4c(O)cccc4[C@@](C)(O)[C@H]3C[C@@H]12 [Tetracycline (hydrochloride)] | – | 0% |
| C=C1C(=O)O[C@H]2[C@H]1CC[C@]1(C)O[C@@]13CC[C@@](C)(O)[C@H]23 [Epoxymicheliolide] | – | 37% |
| N[C@@H](CCC(=O)O)C(=O)O [L-Glutamic acid] | 5.2% | – |
| O=c1cc(-c2ccccc2)oc2cc(O[C@@H]3O[C@H](CO[C@@H]4O[C@H](CO)[C@@H](O)[C@H](O)[C@H]4O)[C@@H](O)[C@H](O)[C@H]3O)c(O)c(O)c12 [Oroxin B] | – | 35.5% |
| C[C@H](N)C(=O)N[C@@H](CCC(N)=O)C(=O)O [L-Alanyl-L-glutamine] (H-Ala-Gln-OH) | – | 8.7% |
| OCC(O)c1ccc(O)c(O)c1 (centres unmarked) [4-(1,2-Dihydroxyethyl)benzene-1,2-diol] | – | 0% |
| CCCCCCCCCCCCCCCCCC(=O)NCc1ccccc1 [N-Benzyloctadecanamide] | – | 46.3% |
| C=CC(=C)CCC=C(C)C [Myrcene] | – | 18.9% |
| CC[C@@H]1/C=C/C=C/C[C@H](C)[C@H](O)[C@](C)(O)C(=O)[C@H](C)[C@@H](O)[C@H](C)C(=O)[C@H](C)[C@@H](O)[C@H](C)/C=C/C(=O)O[C@H]2[C@@H](C)[C@@H](CC1)O[C@@]1(CC[C@@H](C)[C@@H](C[C@H](C)O)O1)[C@@H]2C [Oligomycin A] | – | 4.2% |
| C[C@@H]1CC[C@H]2C(C)(C)[C@H]3C[C@@]12CC[C@@]3(C)O [Cedrol] | – | 13.4% |
| COc1ccc2c3c1O[C@H]1C[C@@H](O)CC[C@]31CCN(C)C2 [Lycoramine] | – | 33.8% |
| COc1c(O[C@@H]2O[C@H](C(=O)O)[C@@H](O)[C@H](O)[C@H]2O)cc2oc(-c3ccccc3)cc(=O)c2c1O [Oroxylin A-7-O-glucuronide] | – | 7.4% |
| C[C@@H]1O[C@@H](OC[C@H]2O[C@@H](OCCc3ccc(O)c(O)c3)[C@H](O)[C@@H](O)[C@@H]2O)[C@H](O)[C@H](O)[C@H]1O [Forsythoside E] | – | 34.8% |
| O=C1C[C@@H](c2ccc(O[C@@H]3O[C@H](CO)[C@@H](O)[C@H](O)[C@H]3O)cc2)Oc2cc(O)ccc21 [Liquiritin] | – | 25.4% |
| CN(C)[C@@H]1C(O)=C(C(N)=O)C(=O)[C@@]2(O)C(O)=C3C(=O)c4c(O)cccc4[C@@](C)(O)[C@H]3[C@H](O)[C@@H]12 [Oxytetracycline (hydrochloride)] | 27.8% | – |
| CC(=O)OC/C=C(/C)CCC=C(C)C [Neryl acetate] | – | 43.1% |
| CC[C@H]1OC(=O)[C@H](C)[C@@H](O[C@H]2C[C@@](C)(OC)[C@@H](O)[C@H](C)O2)[C@H](C)[C@@H](O[C@@H]2O[C@H](C)C[C@H](N(C)C)[C@H]2O)[C@](C)(O)C[C@@H](C)C(=O)[C@H](C)[C@@H](O)[C@]1(C)O [Erythromycin] | – | 11.8% |
| Nc1ccn([C@@H]2O[C@H](COP(=O)(O)OP(=O)(O)OP(=O)(O)O)[C@@H](O)[C@H]2O)c(=O)n1 [Cytidine-5'-triphosphate (disodium)] | – | 10.3% |
| CC(C)C(=O)C(=O)O [3-Methyl-2-oxobutanoic acid] | – | 8.3% |
| NC(N)=NCCCC(=O)O [4-Guanidinobutanoic acid] | – | 11.4% |
| C=C1[C@@H](C)[C@H]2[C@H](Cc3ccccc3)NC(=O)[C@]23OC(=O)/C=C/[C@H](O)CCC[C@@H](C)C/C=C/[C@H]3[C@@H]1O [Cytochalasin B] | – | 14.6% |

| Compound | 229E Inhibition rate (229E Inhibition rate, 24 h) | 229E Inhibition rate |
| --- | --- | --- |
| O=P(O)(O)O[C@H]1[C@H](OP(=O)(O)O)[C@@H](OP(=O)(O)O)[C@H](OP(=O)(O)O)[C@@H](OP(=O)(O)O)[C@H]1OP(=O)(O)O [Phytic acid (dodecasodium hydrate)] | 9.4% | – |
| COc1cc2oc(=O)ccc2cc1O[C@@H]1O[C@H](CO)[C@@H](O)[C@H](O)[C@H]1O [Magnolioside] | – | 9.5% |
| COc1cc(-c2coc3cc4c(c(OC)c3c2=O)OCO4)cc(OC)c1OC [Irisflorentin] | – | 11.3% |
| COc1c(O)cc2occ(-c3ccc(O)cc3)c(=O)c2c1O [Tectorigenin] | – | 11.7% |
| NCCCCC(=O)O [5-Aminovaleric acid] | – | 13.8% |
| c1ccc(CC2=NCCN2)cc1 [Tolazoline (hydrochloride)] | – | 16.2% |
| NC(Cc1cc(I)c(Oc2cc(I)c(OS(=O)(=O)O)c(I)c2)c(I)c1)C(=O)O (centres unmarked) [Thyroxine sulfate] | – | 8.9% |
| O=C(O)CCCc1c[nH]c2ccccc12 [Indole-3-butyric acid] | – | 9.7% |
| CC(C)[C@@H](C)/C=C/[C@@H](C)[C@H]1CC[C@H]2C3=CC=C4C[C@@H](O)CC[C@]4(C)[C@H]3CC[C@]12C [Ergosterol] | – | 4.5% |
| C=CCc1ccc(O)c(OC)c1 [Eugenol] | – | 19% |
| OC[C@@H](O)[C@@H](O)[C@H](O)[C@H](O)CO [D-Mannitol] | – | 11.2% |
| CC(=O)N[C@@H](Cc1ccc(O)cc1)C(=O)O [N-Acetyl-L-tyrosine] | – | 17.6% |
| CC1=COC(=O)[C@H]2[C@@H]1CC[C@@H]2C [4aα,7α,7aα-Nepetalactone] | – | 8.3% |
| O=C(OCC1=C[C@@H](O)[C@@H]2C=CO[C@@H](O[C@@H]3O[C@H](CO)[C@@H](O)[C@H](O)[C@H]3O)[C@H]12)c1ccc(O)cc1 [Agnuside] | – | 19% |
| Nc1ccn([C@@H]2O[C@H](COP(=O)(O)OP(=O)(O)O)[C@@H](O)[C@H]2O)c(=O)n1 [Cytidine 5'-diphosphate (trisodium salt)] | – | 14.7% |
| CC(C)=CC(=O)NCC(=O)O [3-Methylcrotonylglycine] | – | 20.3% |
| CCC(=O)CO [1-Hydroxy-2-butanone] | – | 8.3% |
| COc1cc(OC)c2c(=O)cc(-c3cc(OC)c(OC)c(OC)c3)oc2c1 [3',4',5',5,7-Pentamethoxyflavone] | – | 8.5% |
| CC(C)C1=Cc2ccc3c(c2C(=O)C1=O)CCCC3(C)C [Miltirone] | – | 4.2% |
| COc1cc(-c2oc3cc(OC)c(OC)c(O)c3c(=O)c2OC)ccc1O [Chrysosplenetin] | – | 22.9% |
